Literature values as cited in patent US10653648B2, “Histone acetyltransferase activators and compositions and uses thereof” (THE TRUSTEES OF COLUMBIA UNIVERSITY IN THE CITY OF NEW YORK, priority 2016, dated 2020).
At least one compound was matched to its structure with a doubt left.

Conditions: cited from earlier work

CCCCCCCCCCCCCCCc1cccc(OCC)c1C(=O)Nc1ccc(Cl)c(C(F)(F)F)c1 [CTPB]
membrane permeability: membrane-impermeable
